Reference: patent US9926581B2, “Fagopyritol synthase genes and uses thereof” (Cornell Research Foundation, Inc., priority 2002, dated 2018)
Where “and” joins values, the source holds several entries; their conditions need not be identical. Equal entries are not always repeated.

Experiments:
immature soybean embryos = assay: Embryo feeding experiments: cyclitols fed to immature soybean embryos, precocious maturation by slow drying, soluble carbohydrates in axis and cotyledons; assay type: in vivo, Glycine max (L.) Merrill
buckwheat explants = assay: Buckwheat explant feeding with 100 mM cyclitol in 1% sucrose for 5 days, soluble carbohydrates in embryos and leaf disks; assay type: in vivo, Fagopyrum esculentum; settings: replicate values
soybean explants = assay: Soybean explant feeding 3 days with 50 mM cyclitol in 1% sucrose, slow drying time course, soluble carbohydrates in axis, cotyledon, seed coat and leaf
[1] = 3 days transport of sucrose (1%) and D-chiro-inositol (50 mM), after 2 days slow drying, Rep 1
[2] = 3 days transport of sucrose (1%) and D-chiro-inositol (50 mM), after 2 days slow drying, Rep 2
[3] = 3 days transport of sucrose (1%) and D-chiro-inositol (50 mM), after 4 days slow drying, Rep 1
[4] = 3 days transport of sucrose (1%) and D-chiro-inositol (50 mM), after 4 days slow drying, Rep 2
[5] = 3 days transport of sucrose (1%) and D-chiro-inositol (50 mM), after 14 days slow drying, Rep 1
[6] = 3 days transport of sucrose (1%) and D-chiro-inositol (50 mM), after 14 days slow drying, Rep 2
[7] = 3 days transport of sucrose (1%) and D-chiro-inositol (50 mM), before slow drying, Rep 1
[8] = 3 days transport of sucrose (1%) and D-chiro-inositol (50 mM), before slow drying, Rep 2
[9] = 3 days transport of sucrose (1%) and D-pinitol (50 mM), after 2 days slow drying, Rep 1
[10] = 3 days transport of sucrose (1%) and D-pinitol (50 mM), after 2 days slow drying, Rep 2
[11] = 3 days transport of sucrose (1%) and D-pinitol (50 mM), after 4 days slow drying, Rep 1
[12] = 3 days transport of sucrose (1%) and D-pinitol (50 mM), after 4 days slow drying, Rep 2
[13] = 3 days transport of sucrose (1%) and D-pinitol (50 mM), after 14 days slow drying, Rep 1
[14] = 3 days transport of sucrose (1%) and D-pinitol (50 mM), after 14 days slow drying, Rep 2
[15] = 3 days transport of sucrose (1%) and D-pinitol (50 mM), before slow drying, Rep 1
[16] = 3 days transport of sucrose (1%) and D-pinitol (50 mM), before slow drying, Rep 2
[17] = 3 days transport of sucrose (1%) and myo-inositol (50 mM), after 2 days slow drying, Rep 1
[18] = 3 days transport of sucrose (1%) and myo-inositol (50 mM), after 2 days slow drying, Rep 2
[19] = 3 days transport of sucrose (1%) and myo-inositol (50 mM), after 4 days slow drying, Rep 1
[20] = 3 days transport of sucrose (1%) and myo-inositol (50 mM), after 4 days slow drying, Rep 2
[21] = 3 days transport of sucrose (1%) and myo-inositol (50 mM), after 14 days slow drying, Rep 1
[22] = 3 days transport of sucrose (1%) and myo-inositol (50 mM), after 14 days slow drying, Rep 2
[23] = 3 days transport of sucrose (1%) and myo-inositol (50 mM), before slow drying, Rep 1
[24] = 3 days transport of sucrose (1%) and myo-inositol (50 mM), before slow drying, Rep 2
[25] = 3 days transport of sucrose (1%) without cyclitols, after 2 days slow drying, Rep 1
[26] = 3 days transport of sucrose (1%) without cyclitols, after 2 days slow drying, Rep 2
[27] = 3 days transport of sucrose (1%) without cyclitols, after 4 days slow drying, Rep 1
[28] = 3 days transport of sucrose (1%) without cyclitols, after 4 days slow drying, Rep 2
[29] = 3 days transport of sucrose (1%) without cyclitols, after 14 days slow drying, Rep 1
[30] = 3 days transport of sucrose (1%) without cyclitols, after 14 days slow drying, Rep 2
[31] = 3 days transport of sucrose (1%) without cyclitols, before slow drying, Rep 1
[32] = 3 days transport of sucrose (1%) without cyclitols, before slow drying, Rep 2

galactopinitol B
change in concentration after feeding myo-inositol (immature soybean embryos; axis and cotyledon tissues, myo-inositol up to 50 mM, after precocious maturation): little change
increase in concentration after feeding D-chiro-inositol (immature soybean embryos; axis and cotyledons, concentration series, 14 days precocious maturation): did not increase
Soluble carbohydrates in embryos of seeds from buckwheat explants (buckwheat explants; fed 100 mM D-chiro-inositol in 1% sucrose solution 5 days, 2 days slow drying): 0 μg/embryo
Soluble carbohydrates in embryos of seeds from buckwheat explants (buckwheat explants; fed 100 mM D-chiro-inositol in 1% sucrose solution 5 days, 4 days slow drying): 0 μg/embryo
Soluble carbohydrates in embryos of seeds from buckwheat explants (buckwheat explants; fed 100 mM D-chiro-inositol in 1% sucrose solution 5 days, 7 days slow drying): 0 μg/embryo
Soluble carbohydrates in embryos of seeds from buckwheat explants (buckwheat explants; fed 100 mM D-chiro-inositol in 1% sucrose solution, after 1 day feeding): 0 μg/embryo
Soluble carbohydrates in embryos of seeds from buckwheat explants (buckwheat explants; fed 100 mM D-chiro-inositol in 1% sucrose solution, after 5 days feeding): 0 μg/embryo
Soluble carbohydrates in embryos of seeds from buckwheat explants (buckwheat explants; fed 100 mM D-pinitol in 1% sucrose solution 5 days, 2 days slow drying): 4.39 μg/embryo and 0 μg/embryo (2×)
Soluble carbohydrates in embryos of seeds from buckwheat explants (buckwheat explants; fed 100 mM D-pinitol in 1% sucrose solution 5 days, 4 days slow drying): 5.88 μg/embryo and 0 μg/embryo (2×)
Soluble carbohydrates in embryos of seeds from buckwheat explants (buckwheat explants; fed 100 mM D-pinitol in 1% sucrose solution 5 days, 7 days slow drying): 0 μg/embryo (2×) and 1.81 μg/embryo
Soluble carbohydrates in embryos of seeds from buckwheat explants (buckwheat explants; fed 100 mM D-pinitol in 1% sucrose solution, after 1 day feeding): 0 μg/embryo
Soluble carbohydrates in embryos of seeds from buckwheat explants (buckwheat explants; fed 100 mM D-pinitol in 1% sucrose solution, after 5 days feeding): 1.61 μg/embryo and 1.10 μg/embryo and 1.90 μg/embryo
Soluble carbohydrates in embryos of seeds from buckwheat explants (buckwheat explants; fed 100 mM myo-inositol in 1% sucrose solution 5 days, 2 days slow drying): 0 μg/embryo
Soluble carbohydrates in embryos of seeds from buckwheat explants (buckwheat explants; fed 100 mM myo-inositol in 1% sucrose solution 5 days, 4 days slow drying): 0 μg/embryo
Soluble carbohydrates in embryos of seeds from buckwheat explants (buckwheat explants; fed 100 mM myo-inositol in 1% sucrose solution 5 days, 7 days slow drying): 0 μg/embryo
Soluble carbohydrates in embryos of seeds from buckwheat explants (buckwheat explants; fed 100 mM myo-inositol in 1% sucrose solution, after 1 day feeding): 0 μg/embryo
Soluble carbohydrates in embryos of seeds from buckwheat explants (buckwheat explants; fed 100 mM myo-inositol in 1% sucrose solution, after 5 days feeding): 0 μg/embryo
Soluble carbohydrates in embryos of seeds from buckwheat explants (buckwheat explants; fed 1% sucrose (without cyclitols) solution 5 days, 2 days slow drying): 0 μg/embryo
Soluble carbohydrates in embryos of seeds from buckwheat explants (buckwheat explants; fed 1% sucrose (without cyclitols) solution 5 days, 4 days slow drying): 0 μg/embryo
Soluble carbohydrates in embryos of seeds from buckwheat explants (buckwheat explants; fed 1% sucrose (without cyclitols) solution 5 days, 7 days slow drying): 0 μg/embryo
Soluble carbohydrates in embryos of seeds from buckwheat explants (buckwheat explants; fed 1% sucrose (without cyclitols) solution, after 5 days feeding): 0 μg/embryo and tr
Accumulation of soluble carbohydrates in soybean axis (soybean explants; [1]): 1.47 μg/axis
Accumulation of soluble carbohydrates in soybean cotyledon (soybean explants; [1]): 0 μg/cotyledon
Accumulation of soluble carbohydrates in soybean seed coat (soybean explants; [1]): 0 μg/seed coat
Accumulation of soluble carbohydrates in soybean axis (soybean explants; [2]): 1.56 μg/axis
Accumulation of soluble carbohydrates in soybean cotyledon (soybean explants; [2]): 0 μg/cotyledon
Accumulation of soluble carbohydrates in soybean seed coat (soybean explants; [2]): 0.79 μg/seed coat
Accumulation of soluble carbohydrates in soybean axis (soybean explants; [3]): 6.35 μg/axis
Accumulation of soluble carbohydrates in soybean cotyledon (soybean explants; [3]): 22.34 μg/cotyledon
Accumulation of soluble carbohydrates in soybean seed coat (soybean explants; [3]): 1.76 μg/seed coat
Accumulation of soluble carbohydrates in soybean axis (soybean explants; [4]): 4.73 μg/axis
Accumulation of soluble carbohydrates in soybean cotyledon (soybean explants; [4]): 20.06 μg/cotyledon
Accumulation of soluble carbohydrates in soybean seed coat (soybean explants; [4]): 0.78 μg/seed coat
Accumulation of soluble carbohydrates in soybean axis (soybean explants; [5]): 9.35 μg/axis
Accumulation of soluble carbohydrates in soybean cotyledon (soybean explants; [5]): 25.58 μg/cotyledon
Accumulation of soluble carbohydrates in soybean seed coat (soybean explants; [5]): 0 μg/seed coat
Accumulation of soluble carbohydrates in soybean axis (soybean explants; [6]): 5.03 μg/axis
Accumulation of soluble carbohydrates in soybean cotyledon (soybean explants; [6]): 23.82 μg/cotyledon
Accumulation of soluble carbohydrates in soybean seed coat (soybean explants; [6]): 3.14 μg/seed coat
Accumulation of soluble carbohydrates in soybean axis (soybean explants; [7]): 0 μg/axis
Accumulation of soluble carbohydrates in soybean cotyledon (soybean explants; [7]): 0 μg/cotyledon
Accumulation of soluble carbohydrates in soybean axis (soybean explants; [8]): 0 μg/axis
Accumulation of soluble carbohydrates in soybean cotyledon (soybean explants; [8]): 0 μg/cotyledon
Accumulation of soluble carbohydrates in soybean axis (soybean explants; [9]): 3.09 μg/axis
Accumulation of soluble carbohydrates in soybean cotyledon (soybean explants; [9]): 0 μg/cotyledon
Accumulation of soluble carbohydrates in soybean seed coat (soybean explants; [9]): 0 μg/seed coat
Accumulation of soluble carbohydrates in soybean axis (soybean explants; [10]): 3.49 μg/axis
Accumulation of soluble carbohydrates in soybean cotyledon (soybean explants; [10]): 1.48 μg/cotyledon
Accumulation of soluble carbohydrates in soybean seed coat (soybean explants; [10]): 3.09 μg/seed coat
Accumulation of soluble carbohydrates in soybean axis (soybean explants; [11]): 9.62 μg/axis
Accumulation of soluble carbohydrates in soybean cotyledon (soybean explants; [11]): 41.39 μg/cotyledon
Accumulation of soluble carbohydrates in soybean seed coat (soybean explants; [11]): 1.44 μg/seed coat
Accumulation of soluble carbohydrates in soybean axis (soybean explants; [12]): 7.25 μg/axis
Accumulation of soluble carbohydrates in soybean cotyledon (soybean explants; [12]): 50.76 μg/cotyledon
Accumulation of soluble carbohydrates in soybean seed coat (soybean explants; [12]): 2.10 μg/seed coat
Accumulation of soluble carbohydrates in soybean axis (soybean explants; [13]): 10.61 μg/axis
Accumulation of soluble carbohydrates in soybean cotyledon (soybean explants; [13]): 29.37 μg/cotyledon
Accumulation of soluble carbohydrates in soybean seed coat (soybean explants; [13]): 3.57 μg/seed coat
Accumulation of soluble carbohydrates in soybean axis (soybean explants; [14]): 12.71 μg/axis
Accumulation of soluble carbohydrates in soybean cotyledon (soybean explants; [14]): 40.39 μg/cotyledon
Accumulation of soluble carbohydrates in soybean seed coat (soybean explants; [14]): 6.98 μg/seed coat
Accumulation of soluble carbohydrates in soybean axis (soybean explants; [15]): 0 μg/axis
Accumulation of soluble carbohydrates in soybean cotyledon (soybean explants; [15]): 0 μg/cotyledon
Accumulation of soluble carbohydrates in soybean axis (soybean explants; [16]): 0 μg/axis
Accumulation of soluble carbohydrates in soybean cotyledon (soybean explants; [16]): 0 μg/cotyledon
Accumulation of soluble carbohydrates in soybean axis (soybean explants; [17]): 1.29 μg/axis
Accumulation of soluble carbohydrates in soybean cotyledons (soybean explants; [17]): 6.27 μg/cotyledon
Accumulation of soluble carbohydrates in soybean seed coats (soybean explants; [17]): 0 μg/seed coat
Accumulation of soluble carbohydrates in soybean axis (soybean explants; [18]): 2.20 μg/axis
Accumulation of soluble carbohydrates in soybean cotyledons (soybean explants; [18]): 3.19 μg/cotyledon
Accumulation of soluble carbohydrates in soybean seed coats (soybean explants; [18]): 0 μg/seed coat
Accumulation of soluble carbohydrates in soybean axis (soybean explants; [19]): 3.06 μg/axis
Accumulation of soluble carbohydrates in soybean cotyledons (soybean explants; [19]): 11.92 μg/cotyledon
Accumulation of soluble carbohydrates in soybean axis (soybean explants; [20]): 4.60 μg/axis
Accumulation of soluble carbohydrates in soybean cotyledons (soybean explants; [20]): 28.11 μg/cotyledon
Accumulation of soluble carbohydrates in soybean seed coats (soybean explants; [20]): 1.07 μg/seed coat
Accumulation of soluble carbohydrates in soybean axis (soybean explants; [21]): 5.50 μg/axis
Accumulation of soluble carbohydrates in soybean cotyledons (soybean explants; [21]): 15.29 μg/cotyledon
Accumulation of soluble carbohydrates in soybean seed coats (soybean explants; [21]): 0 μg/seed coat
Accumulation of soluble carbohydrates in soybean axis (soybean explants; [22]): 3.91 μg/axis
Accumulation of soluble carbohydrates in soybean cotyledons (soybean explants; [22]): 9.70 μg/cotyledon
Accumulation of soluble carbohydrates in soybean seed coats (soybean explants; [22]): 2.22 μg/seed coat
Accumulation of soluble carbohydrates in soybean axis (soybean explants; [23]): 0.72 μg/axis
Accumulation of soluble carbohydrates in soybean cotyledons (soybean explants; [23]): 0 μg/cotyledon
Accumulation of soluble carbohydrates in soybean axis (soybean explants; [24]): 0 μg/axis
Accumulation of soluble carbohydrates in soybean cotyledons (soybean explants; [24]): 0 μg/cotyledon
Accumulation of soluble carbohydrates in soybean axis (soybean explants; [25]): 1.81 μg/axis
Accumulation of soluble carbohydrates in soybean cotyledon (soybean explants; [25]): 1.56 μg/cotyledon
Accumulation of soluble carbohydrates in soybean seed coats (soybean explants; [25]): 0 μg/seed coat
Accumulation of soluble carbohydrates in soybean axis (soybean explants; [26]): 2.60 μg/axis
Accumulation of soluble carbohydrates in soybean cotyledon (soybean explants; [26]): 1.54 μg/cotyledon
Accumulation of soluble carbohydrates in soybean seed coats (soybean explants; [26]): 1.22 μg/seed coat
Accumulation of soluble carbohydrates in soybean axis (soybean explants; [27]): 7.11 μg/axis
Accumulation of soluble carbohydrates in soybean cotyledon (soybean explants; [27]): 40.67 μg/cotyledon
Accumulation of soluble carbohydrates in soybean seed coats (soybean explants; [27]): 1.45 μg/seed coat
Accumulation of soluble carbohydrates in soybean axis (soybean explants; [28]): 7.06 μg/axis
Accumulation of soluble carbohydrates in soybean cotyledon (soybean explants; [28]): 36.28 μg/cotyledon
Accumulation of soluble carbohydrates in soybean seed coats (soybean explants; [28]): 0 μg/seed coat
Accumulation of soluble carbohydrates in soybean axis (soybean explants; [29]): 7.78 μg/axis
Accumulation of soluble carbohydrates in soybean cotyledon (soybean explants; [29]): 49.91 μg/cotyledon
Accumulation of soluble carbohydrates in soybean seed coats (soybean explants; [29]): 0 μg/seed coat
Accumulation of soluble carbohydrates in soybean axis (soybean explants; [30]): 5.09 μg/axis
Accumulation of soluble carbohydrates in soybean cotyledon (soybean explants; [30]): 30.24 μg/cotyledon
Accumulation of soluble carbohydrates in soybean seed coats (soybean explants; [30]): 2.18 μg/seed coat
Accumulation of soluble carbohydrates in soybean axis (soybean explants; [31]): 0 μg/axis
Accumulation of soluble carbohydrates in soybean cotyledon (soybean explants; [31]): 4.55 μg/cotyledon
Accumulation of soluble carbohydrates in soybean axis (soybean explants; [32]): 0 μg/axis
Accumulation of soluble carbohydrates in soybean cotyledon (soybean explants; [32]): 1.73 μg/cotyledon
